Taken from: PubChem BioAssay AID1259424 (University of Nebraska Medical Center, 2018)
Assay: 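Find knockdowns that reproduce the expression shifts seen after KSR1 loss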 (primary screen). System: human HCT116 colon cancer cells. Reagent: siRNA pool against human genes, 50 nM. Measurement: 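Six signature mRNAs by branched-DNA multiplex assay, scaled to two housekeeping genes and non-targeting median, log2; matched to mean KSR1 knockdown profile by Pearson correlation and euclidean distance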. Reading the numbers: mean correlation with KSR1 profile and KSR1 correlation: higher = expression change more like KSR1 knockdown; mean distance from KSR1 profile: higher = expression change less like KSR1 knockdown.
The deposit covers about 14,000 reagents; below is a part drawn at random. 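Higher correlation or smaller distance means closer resemblance to KSR1 loss; control wells, including KSR1 knockdowns, recur on many plates.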 Not stated in the record: the time to read-out.

Target gene	PubChem SID	mean correlation with KSR1 profile	mean distance from KSR1 profile	KSR1 correlation, replicate 1	KSR1 correlation, replicate 2	KSR1 correlation, replicate 3
SMIM8	SID364001687	-0.298	1.82	-0.402	-0.171	-0.041
HGFAC	SID363992786	0.298	2.84	0.24	0.309	0.265
KIAA0087	SID364005617	0.02	4.63	0.114	0.0498	0.0618
CEP126	SID364005510	0.43	0.989	0.229	0.0234	0.582
FMO4	SID363993232	-0.0261	1.4	-0.303	0.465	-0.0276
INPP5A	SID363996439	-0.275	2.27	-0.274	-0.333	-0.366
HMCN1	SID364003707	-0.135	3.63	-0.172	-0.138	-0.117
HLA-DRB5	SID363993331	-0.0855	2.09	-0.111	-0.291	0.0513
FBXO25	SID363998112	-0.403	1.33	-0.714	-0.377	-0.0629
AURKAIP1	SID364000625	-0.243	1.28	-0.431	0.122	-0.516
SLC22A14	SID363995758	-0.602	2.13	-0.405	-0.118	-0.894

2 successive records already listed:
Target gene	PubChem SID	mean correlation with KSR1 profile	mean distance from KSR1 profile	KSR1 correlation, replicate 1	KSR1 correlation, replicate 2	KSR1 correlation, replicate 3
KIAA0087	SID364005617	0.02	4.63	0.114	0.0498	0.0618
CEP126	SID364005510	0.43	0.989	0.229	0.0234	0.582

The listing continues:
Target gene	PubChem SID	mean correlation with KSR1 profile	mean distance from KSR1 profile	KSR1 correlation, replicate 1	KSR1 correlation, replicate 2	KSR1 correlation, replicate 3
HAUS3	SID364002835	0.446	1.45	0.583	0.492	0.325
KIF2C	SID363997609	0.196	2.27	0.0869	0.245	0.149
AK2	SID363992850	0.054	2.62	0.273	0.0899	-0.44
AFF1	SID363996803	0.337	3.19	0.145	0.192	0.376
ZDHHC2	SID364000053	-0.146	3.8	-0.153	-0.0902	-0.0388
HBD	SID363991842	0.275	1.14	0.411	-0.0239	0.211
DCLRE1A	SID363999168	-0.0231	2.32	-0.114	0.0361	-0.0512
CPEB3	SID363999192	-0.693	2.6	-0.474	-0.677	-0.658
ZNF160	SID364004355	-0.2	2.27	0.22	0.0448	-0.574
